Residue numbers refer to the chain shown, from its start. The exact form of at least one protein or probe is not confirmed. For part of these data: A weaker result is weaker than the reference pair of the same experiment. Where a protein sequence is shown, tags need not be part of it.
What was measured:
Test in all cases: fluorescence polarization
DDX21Core-DD (human) = biological target: T1, DDX21Core-DD (human) (UniProt Q9NR30); conditions: 175/300 mM salt, weak binding, Kd cannot be fit; FP: 50 mM Tris pH 7.5, 50 mM KCl, 5 mM MgCl2, no ATP; Hill-slope fit; recombinant protein; residues 186-620; protein details: C-terminal His6, uncleavable; label: 5'-FAM
T1 sequence (looked up): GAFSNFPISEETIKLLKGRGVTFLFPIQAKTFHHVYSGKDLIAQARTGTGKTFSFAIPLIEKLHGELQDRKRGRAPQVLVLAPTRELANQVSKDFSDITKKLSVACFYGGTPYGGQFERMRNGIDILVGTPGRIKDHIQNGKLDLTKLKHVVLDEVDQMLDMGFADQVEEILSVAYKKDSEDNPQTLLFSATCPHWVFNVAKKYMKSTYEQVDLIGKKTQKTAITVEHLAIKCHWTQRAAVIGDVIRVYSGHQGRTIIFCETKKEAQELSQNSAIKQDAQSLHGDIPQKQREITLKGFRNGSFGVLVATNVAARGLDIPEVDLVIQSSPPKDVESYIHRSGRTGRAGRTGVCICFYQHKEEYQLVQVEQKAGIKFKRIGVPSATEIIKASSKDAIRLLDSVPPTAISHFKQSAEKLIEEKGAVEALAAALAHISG

DDX21Fl (human) = biological target: T2, DDX21Fl (human) (UniProt Q9NR30); conditions: FP: 50 mM Tris pH 7.5, 50 mM KCl, 5 mM MgCl2, no ATP, Hill-slope fit, recombinant protein, residues 1-783, protein details: N-terminal Trx-His6, cut with thrombin, label: 5'-FAM
T2 sequence (looked up): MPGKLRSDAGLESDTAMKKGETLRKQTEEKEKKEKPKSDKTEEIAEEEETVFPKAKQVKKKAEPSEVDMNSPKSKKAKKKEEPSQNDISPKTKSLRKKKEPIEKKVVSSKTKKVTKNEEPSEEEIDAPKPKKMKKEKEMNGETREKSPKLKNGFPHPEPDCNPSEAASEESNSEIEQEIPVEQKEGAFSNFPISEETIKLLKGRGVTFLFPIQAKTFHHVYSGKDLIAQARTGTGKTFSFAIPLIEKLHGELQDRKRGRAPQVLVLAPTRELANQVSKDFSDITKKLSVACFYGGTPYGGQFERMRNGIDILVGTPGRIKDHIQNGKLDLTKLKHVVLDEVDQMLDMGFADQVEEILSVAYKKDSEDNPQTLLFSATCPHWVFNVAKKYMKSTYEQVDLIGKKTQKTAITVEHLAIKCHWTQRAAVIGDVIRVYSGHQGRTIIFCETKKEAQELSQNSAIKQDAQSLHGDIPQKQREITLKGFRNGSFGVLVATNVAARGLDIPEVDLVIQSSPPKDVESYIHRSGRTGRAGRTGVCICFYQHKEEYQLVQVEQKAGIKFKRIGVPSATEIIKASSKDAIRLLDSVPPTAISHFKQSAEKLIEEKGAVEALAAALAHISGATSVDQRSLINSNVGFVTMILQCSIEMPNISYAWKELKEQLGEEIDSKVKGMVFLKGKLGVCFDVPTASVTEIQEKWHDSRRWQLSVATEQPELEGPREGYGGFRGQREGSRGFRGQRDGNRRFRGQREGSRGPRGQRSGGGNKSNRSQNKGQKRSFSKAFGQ

DDX21ΔN (human) = biological target: T3, DDX21ΔN (human) (UniProt Q9NR30); conditions: 175/300 mM salt; FP: 50 mM Tris pH 7.5, 50 mM KCl, 5 mM MgCl2, no ATP; Hill-slope fit; recombinant protein; residues 186-783; label: 5'-FAM
T3 sequence (looked up): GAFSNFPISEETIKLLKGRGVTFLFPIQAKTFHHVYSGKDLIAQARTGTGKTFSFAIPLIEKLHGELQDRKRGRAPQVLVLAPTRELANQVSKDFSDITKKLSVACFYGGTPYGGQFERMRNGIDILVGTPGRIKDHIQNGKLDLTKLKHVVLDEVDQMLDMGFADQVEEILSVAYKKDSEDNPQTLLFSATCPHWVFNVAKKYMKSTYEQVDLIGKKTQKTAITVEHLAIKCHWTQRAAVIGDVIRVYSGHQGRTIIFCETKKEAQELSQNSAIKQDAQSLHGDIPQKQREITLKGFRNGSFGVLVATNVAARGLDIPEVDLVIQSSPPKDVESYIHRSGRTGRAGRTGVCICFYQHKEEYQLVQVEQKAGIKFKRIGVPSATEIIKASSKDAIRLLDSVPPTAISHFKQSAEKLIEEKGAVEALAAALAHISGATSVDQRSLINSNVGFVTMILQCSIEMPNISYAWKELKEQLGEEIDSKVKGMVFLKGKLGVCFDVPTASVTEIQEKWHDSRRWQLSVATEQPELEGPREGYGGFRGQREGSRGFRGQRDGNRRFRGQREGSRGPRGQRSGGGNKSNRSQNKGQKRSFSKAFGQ

[1] = biological target: T4, DDX21ΔN monomer L611R,A612R,A613R,A614R,L615R,A616R (human) (UniProt Q9NR30); conditions: 175/300 mM salt; FP: 50 mM Tris pH 7.5, 50 mM KCl, 5 mM MgCl2, no ATP; Hill-slope fit; recombinant protein; residues 186-783; label: 5'-FAM
T4 sequence (looked up): T3 sequence (looked up) with L426R, A427R, A428R, A429R, L430R, A431R

DDX21ΔNC (human) = biological target: T5, DDX21ΔNC (human) (UniProt Q9NR30); conditions: 175/300 mM salt, weak binding, Kd cannot be fit; FP: 50 mM Tris pH 7.5, 50 mM KCl, 5 mM MgCl2, no ATP; Hill-slope fit; recombinant protein; residues 186-710; label: 5'-FAM
T5 sequence (looked up): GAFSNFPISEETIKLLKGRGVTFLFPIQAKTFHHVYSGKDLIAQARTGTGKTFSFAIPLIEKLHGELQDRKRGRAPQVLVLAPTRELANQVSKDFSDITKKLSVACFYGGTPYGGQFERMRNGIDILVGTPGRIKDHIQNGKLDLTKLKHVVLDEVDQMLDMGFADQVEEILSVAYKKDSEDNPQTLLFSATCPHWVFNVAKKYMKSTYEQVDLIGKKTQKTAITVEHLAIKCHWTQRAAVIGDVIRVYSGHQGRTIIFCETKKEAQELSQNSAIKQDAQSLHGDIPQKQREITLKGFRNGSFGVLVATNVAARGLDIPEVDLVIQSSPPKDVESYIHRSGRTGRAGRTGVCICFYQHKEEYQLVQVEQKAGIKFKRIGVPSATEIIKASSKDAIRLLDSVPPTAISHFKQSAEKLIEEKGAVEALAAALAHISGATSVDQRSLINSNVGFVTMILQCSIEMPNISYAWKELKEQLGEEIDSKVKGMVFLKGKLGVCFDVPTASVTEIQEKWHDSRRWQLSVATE

With “GUUGGGGCGGGCGUUGGGUUUGGGGGGACG [Q2 RNA G-quadruplex]” the binding result (DDX21Core-DD (human)) was “binds more weakly”, the Kd (DDX21Fl (human); 25 mM KCl, 500 mM NaCl, 2.5 mM MgCl2, 5% glycerol) was 1660 nM and the Kd (DDX21Fl (human); 175 mM salt) was 35.7 nM. For the same sequence, the Kd (DDX21ΔN (human)) was 20.1 nM, the Kd [1] was 8.7 nM and the binding result (DDX21ΔNC (human)) was “binds more weakly”.

Source: PMC7721647, “The Human RNA Helicase DDX21 Presents a Dimerization Interface Necessary for Helicase Activity” (iScience, 2020)
